Experimental data: patent US20140187745 (published 2014)
The star is where a group is joined. Fmoc = O=C(OCC1c2ccccc2-c2ccccc21)*

Key:
[1] = general procedure: Fmoc solid-phase peptide synthesis; Wang resin; conditions: whole synthesis, trifluoroacetate
[2] = general procedure: Fmoc solid-phase peptide synthesis; 2-Cl-Trt resin; conditions: whole synthesis, trifluoroacetate
[3] = analytical liquid chromatography, scale of the general procedure 0.5 Kg of Fmoc-Leu-Wang resin

D-Phe-Pro-Arg-Pro-Gly-Gly-Gly-Gly-Asn-Gly-Asp-Phe-Glu-Glu-Ile-Pro-Glu-Glu-Tyr-Leu-OH
final HPLC purity [1, 3]: 99.8% | isolated yield ([1]; total yield, scale of the general procedure 0.5 Kg of Fmoc-Leu-Wang resin): 55.8% | isolated mass [1]: 608 g

Fmoc-GGGG-OH
crude purity (method not given) [2, 3]: 98.3% | crude yield ([2]; scale of the general procedure 0.5 Kg of Fmoc-Leu-Wang resin): 97.2% | crude mass [2]: 457 g
